Data reported in paper doi:10.1101/2020.07.18.209973.
These are yes or no findings as the source states them, for the method shown. Binding seen in cells or lysates may run through a third protein. A yes stands for co-enrichment or nearness to the bait. Other partners may have been found. For some assays here: Tags and fused reporters may be left off the sequences shown.

Assays:
[1] = target: T1, P. berghei HA3-tagged cGMP-dependent protein kinase (P. berghei); assay: affinity purification with mass spectrometry
T1 sequence: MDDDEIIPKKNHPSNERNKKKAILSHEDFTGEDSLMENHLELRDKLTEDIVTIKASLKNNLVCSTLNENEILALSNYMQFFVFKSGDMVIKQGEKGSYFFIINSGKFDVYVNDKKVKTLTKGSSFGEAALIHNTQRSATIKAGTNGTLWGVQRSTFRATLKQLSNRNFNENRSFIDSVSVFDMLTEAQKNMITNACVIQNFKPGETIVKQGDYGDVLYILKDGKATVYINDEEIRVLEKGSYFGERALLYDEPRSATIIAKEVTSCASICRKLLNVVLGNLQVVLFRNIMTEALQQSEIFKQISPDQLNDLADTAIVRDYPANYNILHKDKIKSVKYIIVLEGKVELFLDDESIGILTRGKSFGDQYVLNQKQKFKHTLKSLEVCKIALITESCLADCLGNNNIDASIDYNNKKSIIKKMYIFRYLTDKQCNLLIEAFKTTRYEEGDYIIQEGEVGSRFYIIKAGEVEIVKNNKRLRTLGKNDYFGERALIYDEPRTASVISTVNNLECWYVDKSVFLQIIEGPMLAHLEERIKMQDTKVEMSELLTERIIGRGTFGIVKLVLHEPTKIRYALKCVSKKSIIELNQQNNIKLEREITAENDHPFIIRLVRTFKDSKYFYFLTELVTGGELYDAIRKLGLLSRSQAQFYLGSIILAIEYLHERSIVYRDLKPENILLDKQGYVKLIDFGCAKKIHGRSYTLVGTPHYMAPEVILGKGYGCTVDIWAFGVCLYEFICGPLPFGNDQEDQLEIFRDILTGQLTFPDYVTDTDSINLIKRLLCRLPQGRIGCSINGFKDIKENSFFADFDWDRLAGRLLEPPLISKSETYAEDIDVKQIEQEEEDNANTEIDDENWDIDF

[2] = target: P. falciparum cGMP-dependent protein kinase tagged with GFP (P. falciparum) (UniProt Q8I719); assay: affinity purification with mass spectrometry

Substance	binding [1]	binding [2]
P. berghei Important for Calcium Mobilisation 1 (from UniProt A0A509AV38)	binds	–
P. falciparum Important for Calcium Mobilisation 1 (from UniProt Q8I5A6)	–	binds
